According to the supplement of paper PMC12823440, “Inhibitors supercharge kinase turnover through native proteolytic circuits” (Nature, 2025):
Counter-ions that a name gives are not always drawn. Some of the results follow. The calls rarely recur for the same compound in another form.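 Kinases, fused to nanoluciferase, were expressed in K562 cells; luminescence was measured every 4 h from 2 to 18 h as percent of control (DMSO = 100%, positive control = 0%). A time point is decreased if signal falls significantly (2 sigma). Hits were called by the authors by a rule that is not shown; the count of time points alone does not decide it.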

Chains of the proteins cited; added tags and fusions are not shown. Lines headed by an entry give the natural chain unless they say otherwise; changes in a name come on top.
UniProt O15530: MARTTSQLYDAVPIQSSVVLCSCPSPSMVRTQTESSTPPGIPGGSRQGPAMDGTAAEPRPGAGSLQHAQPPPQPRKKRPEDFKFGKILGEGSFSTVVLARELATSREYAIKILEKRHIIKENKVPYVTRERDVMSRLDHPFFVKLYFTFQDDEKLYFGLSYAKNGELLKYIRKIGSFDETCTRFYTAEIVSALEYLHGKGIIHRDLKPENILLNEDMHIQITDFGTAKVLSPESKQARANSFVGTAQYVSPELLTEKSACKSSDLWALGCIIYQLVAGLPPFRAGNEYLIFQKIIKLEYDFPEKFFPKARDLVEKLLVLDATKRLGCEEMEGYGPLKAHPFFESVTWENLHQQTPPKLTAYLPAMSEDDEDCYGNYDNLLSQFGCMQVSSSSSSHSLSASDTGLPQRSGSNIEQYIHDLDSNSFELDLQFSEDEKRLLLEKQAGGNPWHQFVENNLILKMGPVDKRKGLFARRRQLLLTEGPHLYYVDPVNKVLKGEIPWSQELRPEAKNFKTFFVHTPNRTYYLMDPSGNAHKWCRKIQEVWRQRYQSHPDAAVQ

Each molecule was assayed against PDPK1 (UniProt O15530) (assay: kinase-Nluc reporter destabilization hit call (1 = scored as downregulated) (binary); higher = compound decreases kinase abundance). Settings: K562; 2-18 h.

| SMILES | kinase-Nluc reporter destabilization hit call |
| --- | --- |
| Cc1cc(O)c2c(c1)C(=O)c1cc(O)cc(O)c1C2=O [Emodin] (10 µM) | inactive: 0 |
| COc1cc2c(N3CCN(C(=O)Nc4ccc(OC(C)C)cc4)CC3)ncnc2cc1OCCCN1CCCCC1 [Tandutinib (hydrochloride)] (10 µM) | inactive: 0 |
| CCC(C)N1c2ccccc2C(=O)N(C)c2cnc(Nc3ccc(C(=O)N4CCC(N5CCN(C)CC5)CC4)cc3OC)nc21 (centres undefined) (2.5 µM) | inactive: 0 |
| COc1cc(Nc2ncc(F)c(Nc3ccc4c(n3)NC(=O)C(C)(C)O4)n2)cc(OC)c1OC (10 µM) | inactive: 0 |
| NS(=O)(=O)c1ccc(-n2nc(C(F)(F)F)cc2-c2ccc(Cl)cc2)cc1 (10 µM) | inactive: 0 |
| Cc1c(NC(=O)c2cccn(-c3ccc(F)cc3)c2=O)ccc(Oc2ccnc(NC(=O)C3CC3)c2)c1C (2 µM) | inactive: 0 |
| c1ccc(-c2[nH]ncc2-c2ccnc3ccccc23)nc1 (10 µM) | inactive: 0 |
| CN(C)CCCOc1ccc(-c2ccc3ncc4c(c3c2)n(C2CCOCC2)c(=O)n4C)cn1 (2 µM) | inactive: 0 |
| COc1cc(Nc2ncc(F)c(Nc3ccc4c(n3)NC(=O)C(C)(C)O4)n2)cc(OC)c1OC [R406 (free base)] (10 µM) | inactive: 0 |
| OCCn1cc(-c2ccc3c(c2)CC/C3=N\O)c(-c2ccncc2)n1 (10 µM) | inactive: 0 |
| C[C@@H]1CCN(C(=O)CC#N)C[C@@H]1N(C)c1ncnc2[nH]ccc12 [Tofacitinib] (10 µM) | inactive: 0 |
| C[C@@H]1CCN(C(=O)CC#N)C[C@@H]1N(C)c1ncnc2[nH]ccc12 [Tofacitinib (citrate)] (10 µM) | inactive: 0 |
| FC(F)(c1ccc2ncccc2c1)c1nnc2ccc(-c3ccncc3)nn12 (10 µM) | inactive: 0 |
| O=C1NC(=O)/C(=C\c2cccc(C(F)(F)F)c2)S1 (2.5 µM) | inactive: 0 |
| N#CCC1CCN(c2nc(Nc3ccc(N4CCC(O)CC4)cc3)c3c(=O)[nH]ncc3n2)CC1 [Gusacitinib] (10 µM) | inactive: 0 |
| Nc1ncnc2c1c(-c1cccc(OCc3ccccc3)c1)cn2C1CC(CN2CCC2)C1 (centres undefined) (2.5 µM) | inactive: 0 |
| CCNc1nc(Nc2cc(F)c(C(=O)N3CCOCC3)cc2OC)ncc1C(F)(F)F [GNE-7915 (tosylate)] (10 µM) | inactive: 0 |
| Cn1cnc2c(F)c(Nc3ccc(Br)cc3Cl)c(C(=O)NOCCO)cc21 [Selumetinib] (10 µM) | inactive: 0 |
| CCN1CCN(Cc2ccc(-c3cc4c(N[C@H](C)c5ccccc5)ncnc4[nH]3)cc2)CC1 (2.5 µM) | inactive: 0 |
| O=C(N/N=C/c1coc2ccccc2c1=O)c1cccnc1 (10 µM) | inactive: 0 |
| O=Nc1c(-c2c(O)[nH]c3ccc(F)cc23)[nH]c2ccccc12 [5'-Fluoroindirubinoxime] (10 µM) | inactive: 0 |
| CC(=O)NC1CC(n2cnc(NC(=O)Cc3ccc4ccccc4c3)c2)C1 (centres undefined) (10 µM) | inactive: 0 |
| O=C(CSC1=NCCN1)NC1CCCCCC1 [ICCB-19 (hydrochloride)] (2.5 µM) | inactive: 0 |
| N#Cc1c(C2CCNCC2)cc(-c2c(O)cccc2OCC2CC2)nc1N [ACHP (Hydrochloride)] (10 µM) | inactive: 0 |
| CCOC(=O)N1CCN(C(=O)[C@H](Cc2cccc(C(=N)N)c2)NS(=O)(=O)c2c(C(C)C)cc(C(C)C)cc2C(C)C)CC1 (10 µM) | inactive: 0 |
| CN1CCN(c2cnc3c(C4CCN(C(=O)c5ccc(OC(F)(F)F)cc5N)CC4)ncnc3c2)CC1 (10 µM) | inactive: 0 |
| Cc1[nH]c(/C=C2\C(=O)Nc3ccccc32)c(C)c1CCC(=O)O [Orantinib] (10 µM) | inactive: 0 |
| Cn1nccc1Nc1nccc(-c2ccn([C@H](CO)c3ccc(Cl)c(F)c3)c(=O)c2)n1 [Ravoxertinib hydrochloride] (10 µM) | inactive: 0 |
| CCCCCCCCCCCCC/C=C/[C@@H](O)[C@@H](N)CO [D-erythro-Sphingosine] (2.5 µM) | inactive: 0 |

Random excerpt: two records from the list, in no set order.

| SMILES | kinase-Nluc reporter destabilization hit call |
| --- | --- |
| OCCn1cc(-c2ccc3c(c2)CC/C3=N\O)c(-c2ccncc2)n1 (10 µM) | inactive: 0 |
| C[C@@H]1CCN(C(=O)CC#N)C[C@@H]1N(C)c1ncnc2[nH]ccc12 [Tofacitinib (citrate)] (10 µM) | inactive: 0 |
